Measurements from PMC12317982.
These are yes or no findings as the source states them, for the method shown. In cells and extracts the contact can be indirect. Some results given as binding are weak or reduced against the parent protein; the word gives no strength. Tags and fused reporters may be left off the sequences shown.

Target: T1, EMC1-FLAG (human) (UniProt Q8N766)
T1 sequence: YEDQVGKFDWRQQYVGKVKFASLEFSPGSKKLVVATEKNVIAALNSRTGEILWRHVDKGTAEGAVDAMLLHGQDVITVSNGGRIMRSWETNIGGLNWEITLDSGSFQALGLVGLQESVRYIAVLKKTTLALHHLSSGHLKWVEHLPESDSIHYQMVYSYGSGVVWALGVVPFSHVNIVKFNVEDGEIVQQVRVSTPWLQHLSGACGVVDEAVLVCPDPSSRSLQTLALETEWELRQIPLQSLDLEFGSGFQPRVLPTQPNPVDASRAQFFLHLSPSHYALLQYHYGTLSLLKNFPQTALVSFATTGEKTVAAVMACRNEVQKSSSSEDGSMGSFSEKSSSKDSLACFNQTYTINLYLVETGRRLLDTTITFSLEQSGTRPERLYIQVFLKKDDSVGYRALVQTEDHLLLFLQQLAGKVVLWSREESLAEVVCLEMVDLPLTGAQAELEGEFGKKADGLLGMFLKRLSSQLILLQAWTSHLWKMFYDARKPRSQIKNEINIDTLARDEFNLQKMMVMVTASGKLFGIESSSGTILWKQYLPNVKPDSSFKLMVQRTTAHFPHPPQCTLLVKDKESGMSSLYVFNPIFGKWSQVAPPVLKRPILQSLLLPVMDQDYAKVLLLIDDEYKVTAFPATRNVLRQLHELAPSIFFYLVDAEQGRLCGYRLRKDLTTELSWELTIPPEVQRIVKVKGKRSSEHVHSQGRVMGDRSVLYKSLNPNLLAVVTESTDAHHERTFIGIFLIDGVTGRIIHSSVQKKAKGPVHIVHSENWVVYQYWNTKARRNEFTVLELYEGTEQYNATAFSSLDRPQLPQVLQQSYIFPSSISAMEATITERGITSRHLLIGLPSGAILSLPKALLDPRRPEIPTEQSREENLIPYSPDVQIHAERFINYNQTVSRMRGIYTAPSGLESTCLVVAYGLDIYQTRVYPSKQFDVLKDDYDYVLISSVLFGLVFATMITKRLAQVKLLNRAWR
Experiment: co-IP; IP against FLAG (EMC1), immunoblot against Strep (clients), normalised to EMC1 wt

B1: TMEM38B, Strep-tagged (protein, UniProt Q9NVV0 1-291)
chain: MDSPWDELALAFSRTSMFPFFDIAHYLVSVMAVKRQPGAAALAWKNPISSWFTAMLHCFGGGILSCLLLAEPPLKFLANHTNILLASSIWYITFFCPHDLVSQGYSYLPVQLLASGMKEVTRTWKIVGGVTHANSYYKNGWIVMIAIGWARGAGGTIITNFERLVKGDWKPEGDEWLKMSYPAKVTLLGSVIFTFQHTQHLAISKHNLMFLYTIFIVATKITMMTTQTSTMTFAPFEDTLSWMLFGWQQPFSSCEKKSEAKSPSNGVGSLASKPVDVASDNVKKKHTKKNE
binding: binds

B2: BCAP31, Strep-tagged (protein, UniProt P51572 1-246)
chain: MSLQWTAVATFLYAEVFVVLLLCIPFISPKRWQKIFKSRLVELLVSYGNTFFVVLIVILVLLVIDAVREIRKYDDVTEKVNLQNNPGAMEHFHMKLFRAQRNLYIAGFSLLLSFLLRRLVTLISQQATLLASNEAFKKQAESASEAAKKYMEENDQLKKGAAVDGGKLDVGNAEVKLEEENRSLKADLQKLKDELASTKQKLEKAENQVLAMRKQSEGLTKEYDRLLEEHAKLQAAVDGPMDKKEE
binding: binds
